Values of other authors as cited in patent publication US20240115678A1, “PERSONALIZED […] CANCER THERAPY” (priority 2022, published 2024).
For at least one compound, name, drawing or mass did not settle the structure.

How the values were obtained:
[1] = test system: tumor blood and lymphatic vessels

## O=c1cc(N2CCOCC2)oc2c(-c3ccccc3)cccc12 [LY294002]
Human microvascular ECs
  tumor CM-induced MDR1 up-regulation: blocked

## CO[C@H]1C[C@@H]2CC[C@@H](C)[C@@](O)(O2)C(=O)C(=O)N2CCCC[C@H]2C(=O)O[C@H]([C@H](C)C[C@@H]2CC[C@@H](O)[C@H](OC)C2)CC(=O)[C@H](C)/C=C(\C)[C@@H](O)[C@@H](OC)C(=O)[C@H](C)C[C@H](C)/C=C/C=C/C=C/1C [rapamycin]
[1]; in vivo
  expression of p-4EBP1 and p-S6K1 proteins: downregulated
  expression of proteins and mRNAs of VEGF-A/VEGFR-2 and VEGF-C/VEGFR-3: downregulated
[1]; peritumor and intratumor region
  CD34(+) blood vessels and LYVE-1(+) lymphatic vessels: decreased

## CO[C@H]1O[C@@H]2O[C@@]3(C)CC[C@H]4[C@H](C)CC[C@@H]([C@H]1C)[C@@]24OO3 [artemether]
Treg cells
  effect on Treg cells: inhibit Treg cells
